The values below come from PMC4634149.

These are yes or no findings as the source states them, for the method shown. Binding seen in cells or lysates may run through a third protein. These calls come from enrichment with a bait or labelling near it, and not all partners need be listed. Tags and fused reporters may be left off the sequences shown.

The target in this assay is T1, AIP1 with N-terminal TAP tag (Arabidopsis thaliana) (UniProt Q8H0V4).
T1 sequence: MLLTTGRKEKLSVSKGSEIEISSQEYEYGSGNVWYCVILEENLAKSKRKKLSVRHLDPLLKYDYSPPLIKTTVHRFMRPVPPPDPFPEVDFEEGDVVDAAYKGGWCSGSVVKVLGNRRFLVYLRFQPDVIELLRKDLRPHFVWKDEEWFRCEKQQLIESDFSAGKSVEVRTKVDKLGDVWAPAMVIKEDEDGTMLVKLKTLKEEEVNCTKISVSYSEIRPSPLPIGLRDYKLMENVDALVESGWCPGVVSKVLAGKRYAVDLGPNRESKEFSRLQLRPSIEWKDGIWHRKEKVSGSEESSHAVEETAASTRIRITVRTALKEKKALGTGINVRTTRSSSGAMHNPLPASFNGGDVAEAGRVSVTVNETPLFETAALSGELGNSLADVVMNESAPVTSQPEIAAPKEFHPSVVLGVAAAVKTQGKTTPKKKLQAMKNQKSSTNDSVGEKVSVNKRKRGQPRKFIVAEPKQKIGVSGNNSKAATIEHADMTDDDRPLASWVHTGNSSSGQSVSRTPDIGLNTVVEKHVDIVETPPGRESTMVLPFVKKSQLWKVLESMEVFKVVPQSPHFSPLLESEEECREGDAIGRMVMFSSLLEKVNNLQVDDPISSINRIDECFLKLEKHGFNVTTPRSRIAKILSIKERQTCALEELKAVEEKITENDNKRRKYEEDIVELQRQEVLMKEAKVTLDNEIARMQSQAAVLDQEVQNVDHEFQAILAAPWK
Briefly: affinity purification with mass spectrometry; tandem affinity purification (protein G and streptavidin binding peptide tag) of N-terminally tagged AIP1 from Arabidopsis cell suspension cultures; three trials; background of about 40 control TAP experiments subtracted.

B1: TPR-like superfamily protein (protein, UniProt O22714 1-491)
chain: MAMRHLSRSRDVTKRSTKKYIEEPLYNRLFKDGGTEVKVRQQLNQFLKGTKHVFKWEVGDTIKKLRNRGLYYPALKLSEVMEERGMNKTVSDQAIHLDLVAKAREITAGENYFVDLPETSKTELTYGSLLNCYCKELLTEKAEGLLNKMKELNITPSSMSYNSLMTLYTKTGETEKVPAMIQELKAENVMPDSYTYNVWMRALAATNDISGVERVIEEMNRDGRVAPDWTTYSNMASIYVDAGLSQKAEKALQELEMKNTQRDFTAYQFLITLYGRLGKLTEVYRIWRSLRLAIPKTSNVAYLNMIQVLVKLNDLPGAETLFKEWQANCSTYDIRIVNVLIGAYAQEGLIQKANELKEKAPRRGGKLNAKTWEIFMDYYVKSGDMARALECMSKAVSIGKGDGGKWLPSPETVRALMSYFEQKKDVNGAENLLEILKNGTDNIGAEIFEPLIRTYAAAGKSHPAMRRRLKMENVEVNEATKKLLDEVSQDV
For the molecule B1, the binding result is “binds”.
